Assay results taken from paper PMC11480203.
Results are given in words; binding and its absence hold for the method and conditions named. Binding seen in cells or lysates may run through a third protein. A yes stands for co-enrichment or nearness to the bait. Other partners may have been found. For some assays here: Where a sequence is shown, tags or fusion partners need not be part of it.

The chains behind the UniProt entries cited, without tags or fusion partners.
UniProt P51532: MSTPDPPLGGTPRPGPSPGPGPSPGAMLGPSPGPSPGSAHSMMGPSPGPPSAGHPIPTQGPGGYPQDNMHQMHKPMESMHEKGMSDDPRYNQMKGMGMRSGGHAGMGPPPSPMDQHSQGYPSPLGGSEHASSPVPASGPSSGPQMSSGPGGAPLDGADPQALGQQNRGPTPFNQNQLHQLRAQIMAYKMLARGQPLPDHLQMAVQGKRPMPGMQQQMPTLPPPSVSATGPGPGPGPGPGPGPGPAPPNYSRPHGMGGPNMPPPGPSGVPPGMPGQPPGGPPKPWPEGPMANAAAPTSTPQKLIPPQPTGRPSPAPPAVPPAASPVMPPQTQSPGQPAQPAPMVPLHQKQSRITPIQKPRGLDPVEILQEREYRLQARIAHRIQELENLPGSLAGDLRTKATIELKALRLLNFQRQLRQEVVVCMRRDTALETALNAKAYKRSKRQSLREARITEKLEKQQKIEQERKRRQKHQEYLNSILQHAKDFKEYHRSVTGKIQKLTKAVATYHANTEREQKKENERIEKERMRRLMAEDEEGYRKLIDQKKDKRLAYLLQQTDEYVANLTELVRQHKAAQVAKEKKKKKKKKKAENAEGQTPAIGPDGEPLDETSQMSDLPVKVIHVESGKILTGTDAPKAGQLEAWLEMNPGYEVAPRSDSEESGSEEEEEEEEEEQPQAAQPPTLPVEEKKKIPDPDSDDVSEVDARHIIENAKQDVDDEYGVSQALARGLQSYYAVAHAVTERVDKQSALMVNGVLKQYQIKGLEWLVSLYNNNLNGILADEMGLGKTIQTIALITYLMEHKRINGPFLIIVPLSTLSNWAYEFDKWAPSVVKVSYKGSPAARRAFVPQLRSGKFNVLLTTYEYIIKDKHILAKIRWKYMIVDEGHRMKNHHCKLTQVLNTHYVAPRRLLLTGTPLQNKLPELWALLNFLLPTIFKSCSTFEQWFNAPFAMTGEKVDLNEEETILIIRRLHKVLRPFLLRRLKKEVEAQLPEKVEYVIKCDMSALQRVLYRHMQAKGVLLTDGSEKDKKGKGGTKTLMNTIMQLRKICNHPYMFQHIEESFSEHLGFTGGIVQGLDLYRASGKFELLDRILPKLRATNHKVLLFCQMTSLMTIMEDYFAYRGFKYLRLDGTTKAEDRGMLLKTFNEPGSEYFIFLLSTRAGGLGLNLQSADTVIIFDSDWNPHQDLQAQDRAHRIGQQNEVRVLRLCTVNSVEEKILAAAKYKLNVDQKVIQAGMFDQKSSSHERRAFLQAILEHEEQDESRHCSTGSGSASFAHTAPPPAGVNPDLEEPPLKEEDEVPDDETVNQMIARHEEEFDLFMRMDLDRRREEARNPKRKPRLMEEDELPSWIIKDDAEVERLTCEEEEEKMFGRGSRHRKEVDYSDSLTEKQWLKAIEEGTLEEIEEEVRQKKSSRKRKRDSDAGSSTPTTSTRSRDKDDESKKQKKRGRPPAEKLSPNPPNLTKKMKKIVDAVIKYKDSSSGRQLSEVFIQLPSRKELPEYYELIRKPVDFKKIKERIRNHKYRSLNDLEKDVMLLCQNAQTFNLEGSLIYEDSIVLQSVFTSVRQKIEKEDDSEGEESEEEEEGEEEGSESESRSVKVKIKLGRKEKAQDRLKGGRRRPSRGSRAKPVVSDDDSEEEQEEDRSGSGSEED
UniProt P46937: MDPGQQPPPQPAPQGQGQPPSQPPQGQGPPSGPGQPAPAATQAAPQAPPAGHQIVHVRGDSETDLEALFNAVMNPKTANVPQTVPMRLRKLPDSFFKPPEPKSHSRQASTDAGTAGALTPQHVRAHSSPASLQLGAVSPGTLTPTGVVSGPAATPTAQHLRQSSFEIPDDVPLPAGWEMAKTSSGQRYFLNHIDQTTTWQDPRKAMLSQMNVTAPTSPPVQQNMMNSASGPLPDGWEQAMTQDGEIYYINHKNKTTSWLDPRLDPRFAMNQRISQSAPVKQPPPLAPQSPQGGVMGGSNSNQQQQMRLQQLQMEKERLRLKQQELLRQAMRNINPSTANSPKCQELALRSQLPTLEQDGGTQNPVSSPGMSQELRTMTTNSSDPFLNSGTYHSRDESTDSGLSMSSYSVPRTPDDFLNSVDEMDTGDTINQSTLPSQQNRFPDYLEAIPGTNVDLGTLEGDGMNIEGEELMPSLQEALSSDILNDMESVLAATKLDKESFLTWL
UniProt P51531: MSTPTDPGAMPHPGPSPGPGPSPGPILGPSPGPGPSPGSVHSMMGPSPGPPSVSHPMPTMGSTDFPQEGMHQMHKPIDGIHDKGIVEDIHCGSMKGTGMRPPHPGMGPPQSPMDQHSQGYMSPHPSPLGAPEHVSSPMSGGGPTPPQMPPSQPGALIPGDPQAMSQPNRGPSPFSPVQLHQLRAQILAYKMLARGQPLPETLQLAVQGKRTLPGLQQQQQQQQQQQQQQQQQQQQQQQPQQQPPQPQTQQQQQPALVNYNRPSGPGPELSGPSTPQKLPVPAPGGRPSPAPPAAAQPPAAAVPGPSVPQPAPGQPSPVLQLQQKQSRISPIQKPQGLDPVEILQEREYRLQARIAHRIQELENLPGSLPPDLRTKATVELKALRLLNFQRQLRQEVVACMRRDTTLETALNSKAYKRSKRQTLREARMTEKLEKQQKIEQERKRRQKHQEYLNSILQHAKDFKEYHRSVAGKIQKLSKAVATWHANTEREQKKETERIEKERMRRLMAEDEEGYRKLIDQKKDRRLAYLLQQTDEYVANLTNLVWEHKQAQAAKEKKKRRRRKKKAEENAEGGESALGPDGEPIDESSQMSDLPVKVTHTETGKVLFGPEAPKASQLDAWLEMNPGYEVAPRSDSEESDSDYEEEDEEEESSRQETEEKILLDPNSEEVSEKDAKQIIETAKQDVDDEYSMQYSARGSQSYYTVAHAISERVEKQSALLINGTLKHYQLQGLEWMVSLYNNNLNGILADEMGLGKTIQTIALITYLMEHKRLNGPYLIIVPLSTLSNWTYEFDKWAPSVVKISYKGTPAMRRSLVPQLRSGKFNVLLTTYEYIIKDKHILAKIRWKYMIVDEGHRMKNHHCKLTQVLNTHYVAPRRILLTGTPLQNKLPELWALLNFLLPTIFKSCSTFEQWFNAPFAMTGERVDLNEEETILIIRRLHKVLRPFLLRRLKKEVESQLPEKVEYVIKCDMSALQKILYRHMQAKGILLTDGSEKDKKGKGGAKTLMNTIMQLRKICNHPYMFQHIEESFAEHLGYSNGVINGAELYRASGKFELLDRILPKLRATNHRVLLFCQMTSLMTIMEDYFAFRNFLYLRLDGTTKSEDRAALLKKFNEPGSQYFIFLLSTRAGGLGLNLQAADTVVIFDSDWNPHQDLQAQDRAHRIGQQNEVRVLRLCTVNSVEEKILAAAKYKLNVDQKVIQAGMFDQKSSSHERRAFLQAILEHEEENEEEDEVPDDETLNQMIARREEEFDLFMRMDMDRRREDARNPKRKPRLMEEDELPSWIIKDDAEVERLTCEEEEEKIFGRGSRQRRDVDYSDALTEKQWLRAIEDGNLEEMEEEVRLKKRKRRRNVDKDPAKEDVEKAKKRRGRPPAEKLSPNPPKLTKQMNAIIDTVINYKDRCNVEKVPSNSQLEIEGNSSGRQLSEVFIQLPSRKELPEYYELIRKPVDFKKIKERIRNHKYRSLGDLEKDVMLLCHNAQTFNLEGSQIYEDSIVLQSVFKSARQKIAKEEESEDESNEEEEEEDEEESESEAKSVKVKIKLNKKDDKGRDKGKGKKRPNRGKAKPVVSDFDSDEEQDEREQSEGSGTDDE
UniProt O75376: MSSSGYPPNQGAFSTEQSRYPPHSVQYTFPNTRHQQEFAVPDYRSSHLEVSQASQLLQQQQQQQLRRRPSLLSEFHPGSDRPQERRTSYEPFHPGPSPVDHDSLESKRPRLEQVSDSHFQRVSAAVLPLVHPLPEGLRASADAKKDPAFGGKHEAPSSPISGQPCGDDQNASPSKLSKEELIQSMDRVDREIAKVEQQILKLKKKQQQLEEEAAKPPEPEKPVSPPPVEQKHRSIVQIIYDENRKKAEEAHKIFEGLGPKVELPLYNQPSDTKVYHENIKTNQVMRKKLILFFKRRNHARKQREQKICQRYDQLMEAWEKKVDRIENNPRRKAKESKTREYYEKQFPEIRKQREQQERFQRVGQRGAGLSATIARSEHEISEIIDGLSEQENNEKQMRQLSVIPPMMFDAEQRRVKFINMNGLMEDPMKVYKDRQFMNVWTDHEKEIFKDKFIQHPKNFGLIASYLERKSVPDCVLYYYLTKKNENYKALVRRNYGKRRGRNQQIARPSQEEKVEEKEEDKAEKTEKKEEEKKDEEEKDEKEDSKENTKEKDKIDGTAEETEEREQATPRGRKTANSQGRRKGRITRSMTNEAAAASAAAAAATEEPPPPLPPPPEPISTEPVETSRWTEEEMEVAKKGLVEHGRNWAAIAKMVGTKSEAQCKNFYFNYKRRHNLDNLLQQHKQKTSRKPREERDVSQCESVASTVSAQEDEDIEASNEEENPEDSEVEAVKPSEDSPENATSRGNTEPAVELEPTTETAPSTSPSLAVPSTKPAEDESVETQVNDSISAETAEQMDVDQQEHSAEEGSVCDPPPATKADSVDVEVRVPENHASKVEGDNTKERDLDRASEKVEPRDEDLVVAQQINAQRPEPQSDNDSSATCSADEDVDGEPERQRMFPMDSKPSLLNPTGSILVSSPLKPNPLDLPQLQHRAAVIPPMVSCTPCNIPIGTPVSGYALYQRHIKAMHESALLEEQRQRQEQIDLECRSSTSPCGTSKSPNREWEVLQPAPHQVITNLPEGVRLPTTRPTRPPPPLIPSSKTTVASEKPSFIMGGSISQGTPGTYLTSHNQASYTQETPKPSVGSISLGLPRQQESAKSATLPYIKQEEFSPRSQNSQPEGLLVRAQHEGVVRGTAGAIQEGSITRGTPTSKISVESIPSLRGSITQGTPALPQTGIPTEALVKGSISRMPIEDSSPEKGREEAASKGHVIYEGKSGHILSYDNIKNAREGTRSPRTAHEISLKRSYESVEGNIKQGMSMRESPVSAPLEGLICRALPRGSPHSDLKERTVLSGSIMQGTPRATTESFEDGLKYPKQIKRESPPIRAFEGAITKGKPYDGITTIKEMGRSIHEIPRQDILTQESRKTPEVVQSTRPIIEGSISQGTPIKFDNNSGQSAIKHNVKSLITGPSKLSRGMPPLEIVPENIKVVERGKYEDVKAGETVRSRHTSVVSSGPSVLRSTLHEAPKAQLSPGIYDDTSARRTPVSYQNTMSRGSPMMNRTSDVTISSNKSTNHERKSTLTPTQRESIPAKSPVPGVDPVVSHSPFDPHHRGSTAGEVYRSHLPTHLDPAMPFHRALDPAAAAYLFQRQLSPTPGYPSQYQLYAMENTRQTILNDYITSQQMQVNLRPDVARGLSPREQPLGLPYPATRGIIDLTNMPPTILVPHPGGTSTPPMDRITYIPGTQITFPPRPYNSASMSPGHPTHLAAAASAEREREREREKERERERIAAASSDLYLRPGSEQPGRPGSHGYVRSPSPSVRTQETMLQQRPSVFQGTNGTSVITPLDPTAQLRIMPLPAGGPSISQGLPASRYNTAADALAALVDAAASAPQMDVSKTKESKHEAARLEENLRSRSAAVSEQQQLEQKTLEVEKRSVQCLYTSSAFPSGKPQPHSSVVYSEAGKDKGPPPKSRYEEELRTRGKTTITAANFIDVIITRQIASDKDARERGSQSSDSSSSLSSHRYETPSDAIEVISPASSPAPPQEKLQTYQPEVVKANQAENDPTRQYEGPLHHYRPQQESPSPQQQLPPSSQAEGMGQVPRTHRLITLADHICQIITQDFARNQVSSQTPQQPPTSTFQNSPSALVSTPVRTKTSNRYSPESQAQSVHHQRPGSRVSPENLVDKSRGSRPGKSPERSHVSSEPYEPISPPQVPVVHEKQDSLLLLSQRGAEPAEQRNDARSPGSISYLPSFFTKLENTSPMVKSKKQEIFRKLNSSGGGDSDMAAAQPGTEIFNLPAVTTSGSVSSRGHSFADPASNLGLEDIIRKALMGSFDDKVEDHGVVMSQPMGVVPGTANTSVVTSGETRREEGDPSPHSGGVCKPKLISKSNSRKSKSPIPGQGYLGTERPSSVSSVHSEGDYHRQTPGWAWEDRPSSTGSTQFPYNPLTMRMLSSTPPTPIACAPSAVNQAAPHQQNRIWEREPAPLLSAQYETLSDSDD

T1: BirA*-Flag-JUN WT, P05412
T1 chain: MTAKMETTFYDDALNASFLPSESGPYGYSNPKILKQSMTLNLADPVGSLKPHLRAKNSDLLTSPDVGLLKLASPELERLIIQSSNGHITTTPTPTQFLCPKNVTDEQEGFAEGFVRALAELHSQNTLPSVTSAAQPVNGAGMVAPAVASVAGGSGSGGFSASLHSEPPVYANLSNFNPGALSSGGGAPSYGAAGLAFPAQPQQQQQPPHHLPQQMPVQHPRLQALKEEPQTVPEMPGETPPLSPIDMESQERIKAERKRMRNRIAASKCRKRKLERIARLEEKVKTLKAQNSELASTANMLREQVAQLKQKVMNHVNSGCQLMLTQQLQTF


Assays:
Test in all cases: proximity labelling; BioID: BirA*-JUN fusion proteins stably expressed in MCF10A JUN knockout cells, 50 uM biotin for 18 h; biotinylated proteins captured on streptavidin Sepharose, DIA mass spectrometry; compared with the NLS-Flag-BirA* control
JUN WT-BirA*-Flag = JUN WT-BirA*-Flag (UniProt P05412)
BirA*-Flag-JUN WT = BirA*-Flag-JUN WT (UniProt P05412)
[1] = biological target: T1, BirA*-Flag-JUN WT, P05412; settings: remark: other sources report otherwise

Molecule | binding (JUN WT-BirA*-Flag) | binding (BirA*-Flag-JUN WT) | binding [1]
SMARCA4 (from UniProt P51532 1-1647) | binds | binds | –
Yes-associated protein (YAP) (from UniProt P46937 1-504) | – | binds | –
FOSB, P53539 1-338 (protein) MFQAFPGDYDSGSRCSSSPSAESQYLSSVDSFGSPPTAAASQECAGLGEMPGSFVPTVTAITTSQDLQWLVQPTLISSMAQSQGQPLASQPPVVDPYDMPGTSYSTPGMSGYSSGGASGSGGPSTSGTTSGPGPARPARARPRRPREETLTPEEEEKRRVRRERNKLAAAKCRNRRRELTDRLQAETDQLEEEKAELESEIAELQKEKERLEFVLVAHKPGCKIPYEEGPGPGPLAEVRDLPGSAPAKEDGFSWLLPPPPPPPLPFQTSQDAPPNLTASLFTHSEVQVLGDPFPVVNPSYTSSFVLTCPEVSAFAGAQRTSGSDQPSDPLNSPSLLAL | – | – | binds

Second part, the molecule after the results:

binding (JUN WT-BirA*-Flag) | binding (BirA*-Flag-JUN WT) | binding [1] | Molecule
binds | binds | – | SMARCA2 (from UniProt P51531 1-1590)
binds | binds | – | NCOR1 (from UniProt O75376 1-2440)
